In patent US20070265288A1, “Stable Crystal Form of Imatinib Mesylate and Process for the Preparation Thereof” (priority 2004, published 2007):

Conditions: six and twelve months after manufacture

With `CS(=O)(=O)O.Cc1ccc(NC(=O)c2ccc(CN3CCN(C)CC3)cc2)cc1Nc1nccc(-c2cccnc2)n1` [imatinib mesylate] the “polymorphic and chemical identity” value was “retained the same polymorphic and chemical identity”.
